The subject of the test is L1210 leukemia ip in BDF1 mice, survival T/C. Put plainly: NCI In Vivo Anticancer Drug Screen. Data for tumor model L1210 Leukemia (intraperitoneal) in B6D2F1 (BDF1) mice. The settings on record: T/C endpoint: mean survival time, higher T/C = longer survival.
[1] abbreviates: dose: 100.0 mg/kg/injection, schedule: Q01DX009 (ip), vehicle: saline.
[2] abbreviates: dose: 100.0 mg/kg/injection, schedule: Q04DX003 (ip), vehicle: saline.
Setting [3] is: dose: 200.0 mg/kg/injection, schedule: Q04DX003 (ip), vehicle: saline.
The mark [4] stands for this setting: dose: 400.0 mg/kg/injection, schedule: Q04DX003 (ip), vehicle: saline with Tween-80.
Where [5] appears, read: dose: 200.0 mg/kg/injection, schedule: Q01DX009 (ip), vehicle: saline with Tween-80.
The mark [6] stands for this setting: dose: 400.0 mg/kg/injection, schedule: Q01DX009 (ip), vehicle: saline with Tween-80.
Where [7] appears, read: dose: 200.0 mg/kg/injection, schedule: Q04DX003 (ip), vehicle: saline with Tween-80.
Where [8] appears, read: dose: 200.0 mg/kg/injection, schedule: Q01DX001 (ip), vehicle: saline.
Setting [9] is: dose: 400.0 mg/kg/injection, schedule: Q01DX001 (ip), vehicle: saline.
Where [10] appears, read: dose: 400.0 mg/kg/injection, schedule: Q01DX001 (ip), vehicle: carboxymethylcellulose (CMC).
[11] abbreviates: dose: 200.0 mg/kg/injection, schedule: Q01DX009 (ip), vehicle: Klucel (hydroxypropylcellulose) (HPC).
The mark [12] stands for this setting: dose: 400.0 mg/kg/injection, schedule: Q04DX003 (ip), vehicle: saline.

The list does not hold the whole screen: it gathers tests that were run many times, whatever their T/C, doses with no T/C, and many T/C values between a quarter and a half above the control. Further doses and runs are listed elsewhere. T/C is the treated group as % of the vehicle group. Some entries give survivors of the animals treated and no T/C: the source files T/C as zero there, which appears to mark a toxic dose or a test without result, not a measured value. Some survivor counts are full or nearly so, which does not show that the dose was tolerated: the source hardly ever lists a survival T/C far under the control, and the zero likely stands for such cases as well. Survivors were counted at the toxicity check, usually on the fifth day, unless a day is given; later deaths do not show. Schedules are NCI's codes, taken here to give the interval after Q, in days (D) or hours (H), and the number of doses after X. Some schedules carry Z or #; the key to these is not given. Where survival is the endpoint, this PubChem deposit counts one and a half times the control or more as active, and values a quarter to a half above the control carry no call in these data; other NCI protocols may use other cut-offs. Some T/C values carry the count of animals alive at the toxicity check (mostly the fifth day); where none is given, no animal had died by that day.

As for `C=CC#N`, the survivor count runs as follows: under setting [1], 6 of 6; under setting [2], 6 of 6; (dose: 200.0 mg/kg/injection, schedule: Q01DX009 (ip), vehicle: saline) 6 of 6; under setting [3], 1 of 6; (dose: 400.0 mg/kg/injection, schedule: Q01DX009 (ip), vehicle: saline) 6 of 6; (dose: 800.0 mg/kg/injection, schedule: Q01DX009 (ip), vehicle: saline) 3 of 6.

As for `Cc1ccc(S(=O)(=O)OC[C@H]2CC=CC[C@H]2COS(=O)(=O)c2ccc(C)cc2)cc1`, the survivor count (dose: 400.0 mg/kg/injection, schedule: Q01DX009 (ip), vehicle: DMSO) is recorded as 6 of 6 and the survivor count under setting [4] was 6 of 6.

`CCOC(=O)c1ccc(NC(=O)Nc2nccs2)cc1`: the T/C under setting [5] was 125 % of control [5 of 6 alive]. Besides, the survivor count under setting [6] is listed as 2 of 6.

Take `CC1(C)OCC(CO)([N+](=O)[O-])CO1`: the survivor count is recorded as 3 of 6 under setting [5]; 1 of 6 under setting [7]; 0 of 6 (dose: 300.0 mg/kg/injection, schedule: Q04DX003 (ip), vehicle: saline with Tween-80); 0 of 6 under setting [4]. In addition, the T/C under setting [7] was 125 % of control.

Turning to `CC[n+]1c(COCCOc2ccccc2)sc2cc3c(cc21)OCO3`, the survivor count is reported as 2 of 6 under setting [8] and 1 of 6 under setting [9].

`CCCCNC(C)(C)COC(=O)/C=C/c1ccc(OCCCC)cc1`: the survivor count runs as follows: under setting [9], 0 of 4; (dose: 400.0 mg/kg/injection, schedule: Q01DX015 (ip), vehicle: saline) 2 of 6; under setting [4], 0 of 6.

With `CCc1nc(N)nc(N)c1-c1ccc(Cl)cc1.[O]=[Zn]`, the survivor count under setting [10] is listed as 0 of 6.

Consider `CCCCCC(=O)c1c(O)cc(=O)oc1C`, for which the survivor count reads like this: (dose: 25.0 mg/kg/injection, schedule: Q01DX009 (ip), vehicle: Klucel (hydroxypropylcellulose) (HPC)) 5 of 6; (dose: 50.0 mg/kg/injection, schedule: Q01DX009 (ip), vehicle: Klucel (hydroxypropylcellulose) (HPC)) 0 of 6; (dose: 100.0 mg/kg/injection, schedule: Q01DX009 (ip), vehicle: Klucel (hydroxypropylcellulose) (HPC)) 0 of 6; (dose: 200.0 mg/kg/injection, schedule: Q04DX003 (ip), vehicle: Klucel (hydroxypropylcellulose) (HPC)) 5 of 6; (dose: 400.0 mg/kg/injection, schedule: Q04DX003 (ip), vehicle: Klucel (hydroxypropylcellulose) (HPC)) 0 of 6.

Consider `CCCSCC(C)C`, for which, under setting [6], the survivor count is reported as 1 of 6.

Consider `N#Cc1c(=O)[nH]c2ccccc2[n+]1[O-]`, for which the survivor count under setting [11] is given as 1 of 3.

Consider `CCN(CC)CCCC(C)Nc1c2ccc(Cl)cc2nc2ccc(F)cc12` (configuration not stated), for which the survivor count (dose: 150.0 mg/kg/injection, schedule: Q01DX Z (ip), vehicle: saline) is recorded as 1 of 6.

Consider `CC(CCNc1ccc(NCCC(C)CC(C)(C)C)cc1)CC(C)(C)C` (configuration not stated), for which, under “dose: 400.0 mg/kg/injection, schedule: Q01DX009 (ip), vehicle: Klucel (hydroxypropylcellulose) (HPC)”, the survivor count is 6 of 6.

For the compound `Cn1nc(N)c2cc(C(N)=O)c(N)nc21`, under setting [11], the survivor count is listed as 6 of 6.

As to `CNC1(c2ccc(F)cc2)CCCCC1`, the survivor count under setting [8] is given as 1 of 4 and the survivor count under setting [9] was 0 of 4.

As to `CC1(C)N=C(N)N=C(N)N1c1ccc(CCCCc2ccc(S(=O)(=O)F)cc2)c(Cl)c1`, the survivor count is recorded as 1 of 6 (dose: 75.0 mg/kg/injection, schedule: Q01DX001 (ip), vehicle: saline); 0 of 6 (dose: 150.0 mg/kg/injection, schedule: Q01DX001 (ip), vehicle: saline); 0 of 6 (dose: 300.0 mg/kg/injection, schedule: Q01DX001 (ip), vehicle: saline).

Turning to `CC(C)(CO)NCC1CCCC(CNC(C)(C)CO)C1` (configuration not stated), the survivor count is 1 of 4 (dose: 200.0 mg/kg/injection, schedule: Q01DX001 (ip), vehicle: carboxymethylcellulose (CMC)) and 1 of 4 under setting [10].

Regarding `O=[N+]([O-])c1ccc(/C=N/c2nccs2)o1`, the survivor count (dose: 12.5 mg/kg/injection, schedule: Q01DX009 (ip), vehicle: saline) was 5 of 6; the survivor count (dose: 25.0 mg/kg/injection, schedule: Q01DX009 (ip), vehicle: saline) was 4 of 6; the survivor count (dose: 50.0 mg/kg/injection, schedule: Q01DX009 (ip), vehicle: saline) is 4 of 6; the survivor count under setting [1] is recorded as 2 of 6; the survivor count under setting [3] is listed as 2 of 6; the survivor count under setting [12] is 0 of 6.

Take `CN1CC(C(=O)N2CCCCC2)C=C2c3cccc4[nH]cc(c34)CC21` (configuration not stated): the survivor count reads like this: under setting [2], 3 of 6; under setting [3], 0 of 6; under setting [12], 0 of 6.

Source of the values: PubChem BioAssay AID248 (DTP/NCI, 2004).
